# For at least one entry, the source does not settle the construct or the ends of the probe. Negatives hold for the conditions tested. At least one verdict rests on a figure or table, not on a statement of the authors. Where a protein sequence is shown, tags need not be part of it. For part of these data: Weaker means in comparison with the reference protein, sequence or condition of that experiment.
# Tests used:
# [1] = target: T1, RD26 (ANAC072) (Arabidopsis thaliana) (UniProt Q93VY3); assay: EMSA; conditions: 25 mM HEPES-KOH pH 8.0, 1 mM DTT, 50 mM KCl, 10% glycerol, 20 μl, about 0.2 ng probe, 40 min on ice, 5% native PAGE in 1x TGE, recombinant protein, label: 32P 5' end
# T1 sequence (looked up, limits assumed): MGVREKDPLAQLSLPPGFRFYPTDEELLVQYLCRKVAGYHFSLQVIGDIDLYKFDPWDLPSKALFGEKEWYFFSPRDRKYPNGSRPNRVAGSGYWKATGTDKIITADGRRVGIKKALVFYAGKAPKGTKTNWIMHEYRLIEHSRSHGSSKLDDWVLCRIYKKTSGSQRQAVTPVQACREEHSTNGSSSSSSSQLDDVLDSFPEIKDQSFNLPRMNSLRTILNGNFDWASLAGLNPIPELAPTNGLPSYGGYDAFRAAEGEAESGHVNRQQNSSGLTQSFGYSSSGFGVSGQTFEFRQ
# [2] = target: T2, BES1 (Arabidopsis thaliana) (UniProt Q9LN63); assay: EMSA; conditions: 25 mM HEPES-KOH pH 8.0, 1 mM DTT, 50 mM KCl, 10% glycerol, 20 μl, about 0.2 ng probe, 40 min on ice; 5% native PAGE in 1x TGE; recombinant protein; label: 32P 5' end
# T2 sequence (looked up, limits assumed): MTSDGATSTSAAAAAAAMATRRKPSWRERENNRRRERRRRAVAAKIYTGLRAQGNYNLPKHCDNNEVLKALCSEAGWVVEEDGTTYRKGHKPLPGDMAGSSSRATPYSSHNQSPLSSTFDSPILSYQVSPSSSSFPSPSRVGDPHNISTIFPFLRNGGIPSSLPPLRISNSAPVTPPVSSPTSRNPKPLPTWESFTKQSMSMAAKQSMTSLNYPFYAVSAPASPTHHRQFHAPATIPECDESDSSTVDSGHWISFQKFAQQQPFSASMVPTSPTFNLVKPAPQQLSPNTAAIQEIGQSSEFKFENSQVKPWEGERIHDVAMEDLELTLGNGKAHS
Sequence,binding result ([1]; weaker than BES1),binding result [2],binding result [1]
AAACCGAAAACACGTGTGAGAAAGAAGAAA (double strand) [At4g18010 BRRE WT],binds more weakly,,
ATTACCTAACTATAAAAAAATAATGTGTTC (double strand) [At4g00360 E-box MU],,no binding,no binding
